Measurements from EP4000623A1, “5-(2-(1H-INDOL-3-YL))-ETHYL)- PIPERAZIN-2-ONE DERIVATIVES FOR USE IN THE TREATMENT OF VIRAL INFECTIONS BY VIRUSES OF THE FAMILY CORONAVIRIDAE” (Consejo Superior De Investigaciones Científicas, priority 2020, dated 2022).
Some of these results come from one statement about several compounds together.

The compounds below were run on Huh7-Lunet#3 cells. Settings: 10µM, 72 hours, crystal violet.

SMILES	cytotoxicity (relative well biomass)
CC(C)(C)OC(=O)NCCCC[C@H]1C(=O)NCC([C@H](Cc2cn(C(=O)OC(C)(C)C)c3ccccc23)NC(=O)OC(C)(C)C)N1Cc1ccccc1 (stereo in doubt) [Example 4, (5R,3S)-4-benzyl-5-((S)-1-(tert-butoxycarbonyl)amino-2-(1-(tert-butoxycarbonyl)(indol-3-yl))-ethyl)-3-(4-(tert-butoxycarbonyl)amino-butyl)-2-oxopiperazine]	absence of measurable cytotoxicity
CC(C)(C)OC(=O)NCCCC[C@H]1C(=O)NC[C@H]([C@H](Cc2cn(C(=O)OC(C)(C)C)c3ccccc23)NC(=O)OC(C)(C)C)N1Cc1ccccc1 [Example 3, (5R,3S)-4-benzyl-5-((S)-1-(tert-butoxycarbonyl)amino-2-(1-(tert-butoxycarbonyl)(indol-3-yl))-ethyl)-3-(4-(tert-butoxycarbonyl)amino-butyl)-2-oxopiperazine]	absence of measurable cytotoxicity
CC(C)(C)OC(=O)CN1[C@@H]([C@H](Cc2cn(C(=O)OC(C)(C)C)c3ccccc23)NC(=O)OC(C)(C)C)CNC(=O)[C@@H]1CCCCNC(=O)OC(C)(C)C [Example 5, (5R,3S)-5-((S)-1-(tert-butoxycarbonyl)amino-2-(1-(tert-butoxycarbonyl)-(indol-3-yl))-ethyl)-4(tert-butoxycarbonyl)methyl-3-(4-(tert-butoxycarbonyl)aminobutyl)-2-oxopiperazine]	absence of measurable cytotoxicity
CC(C)(C)OC(=O)CN1[C@@H](CCCCNC(=O)OC(C)(C)C)C(=O)NC[C@H]1[C@H](Cc1cn(C(=O)OC(C)(C)C)c2ccccc12)NC(=O)OC(C)(C)C [Example 6, (5S,3S)-5-((S)-1-(tert-butoxycarbonyl)amino-2-(1-(tert-butoxycarbonyl)-(indol-3-yl))-ethyl)-4(tert-butoxycarbonyl)methyl-3-(4-(tert-butoxycarbonyl)aminobutyl)-2-oxopiperazine]	absence of measurable cytotoxicity
